The shares of active, inactive and inconclusive entries below differ from those in the screen. For some assays here: Potencies of inconclusive entries are doubtful fits and often do not repeat. Activity calls are given as the source filed them. Unless noted, calls come from the whole dose curve; as a rule, active = well fitted curve in the direction sought with a large enough effect; inconclusive = small, poorly fitted or top-dose-only effect, or another doubt; inactive = no such curve, though single readings can be large; an effect the other way counts as inactive or inconclusive.
Legend:
[1] = qHTS assay for small molecule agonists of the antioxidant response element (ARE) signaling pathway (AID 651741; active = well fitted activation curve with a large enough effect in the signal ratio; inconclusive = small, poorly fitted or top-dose-only effect, or effect the other way, or a change in a side signal; the % refers to the signal ratio; note: potency is the fitted concentration of half-maximal effect); conditions: HepG2 ARE-bla reporter, beta-lactamase FRET ratio, 16 h; activation: at 96 µM (top of the series) unless noted
Method in brief: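 HepG2 ARE-bla cells plated at 2,000 cells/well and incubated 5 h at 37 C/5% CO2 received 23 nL compound in DMSO. After 16 h at 37 C, LiveBLAzer B/G FRET substrate was applied for 2 h at room temperature and fluorescence read.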

Sequences of proteins named here, by UniProt entry; tags and fusion partners are left off.
UniProt P01375, whole entry, looked up: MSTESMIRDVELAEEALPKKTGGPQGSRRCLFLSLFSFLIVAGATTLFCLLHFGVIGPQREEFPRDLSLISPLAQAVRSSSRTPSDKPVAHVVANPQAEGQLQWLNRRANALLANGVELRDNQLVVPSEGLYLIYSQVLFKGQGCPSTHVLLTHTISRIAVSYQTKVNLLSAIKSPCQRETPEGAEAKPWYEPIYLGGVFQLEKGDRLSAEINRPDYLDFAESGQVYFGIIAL

[2] = molecular target: Tumor necrosis factor (Homo sapiens) (UniProt P01375); assay: qHTS assay to identify small molecules that stimulate Tumor Necrosis Factor-alpha (TNF-alpha) secretion (AID 651757; active = well fitted curve in the direction sought with a large enough effect in the signal ratio; inconclusive = small, poorly fitted or top-dose-only effect, or a change in a side signal; inactive = no such curve, though single readings can be large or run the other way; the % refers to the signal ratio; note: 0% is about no effect); conditions: Human cells, HTRF 665/615 ratio; activation (TNF-alpha secretion): at 92.2 µM (top of the series)
Method in brief: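 Secreted TNF-alpha from compound-treated THP-1 cells (17 hrs, 37 C) was quantified with a homogeneous time-resolved fluorescence antibody assay.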

[3] = qHTS assay to identify small molecules that stimulate interleukin-8 (IL-8) secretion (AID 651758; active = well fitted activation curve with a large enough effect in the signal ratio; inconclusive = small, poorly fitted or top-dose-only effect, or effect the other way, or a change in a side signal; the % refers to the signal ratio; note: potency is the fitted concentration of half-maximal effect); conditions: HTRF ratio (665/615); activation: at 92.2 µM (top of the series)
Method in brief: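 THP-1 cells (2000/well) exposed to compound 16 h at 37 C; secreted IL-8 then detected by HTRF with cryptate- and XL665-labelled anti-IL-8 antibody pair after 1-3 h at room temperature.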

[4] = qHTS assay for small molecule antagonists of the retinoid-related orphan receptor gamma (ROR-gamma) signaling pathway - cell viability counter screen (AID 720652; active = well fitted curve in the direction sought with a large enough effect in the repeat runs; inconclusive = weak or mixed curves; inactive = no such curve, though single readings can be large; an effect the other way counts as inactive or inconclusive;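 note: potency is the fitted concentration of half-maximal effect; compound exposure lasted 16 hr before ATP read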)
Method in brief: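 Cytotoxicity is quantified via intracellular ATP (CellTiter-Glo luminescence) in doxycycline-induced CHO ROR response element-luciferase reporter cells treated with compound for 16 hr at 37 C, 5% CO2.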

[5] = qHTS assay for cell viability of the p53RE-bla HCT-116 cell line (AID 743292); note: potency is the fitted concentration of half-maximal effect; nearly all actives have a fitted effect of over 55% in size
Method in brief: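 Viability of compound-treated p53RE-bla HCT-116 cells is taken from ATP-dependent luciferase luminescence. Treatment lasts 16 h at 37 C after a 5 h settling period; detection follows 30 min at room temperature.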

7G8 = assay: qHTS profiling for inhibitors of Plasmodium falciparum proliferation (AID 504749); note: nearly all actives have a fitted effect of over 60% in size; note: potency is the fitted concentration of half-maximal effect;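 for activity, negative = inhibition: 0% = DMSO vehicle and full inhibition = artemisinin control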; conditions: P. falciparum in erythrocytes, SYBR Green DNA, 72 h; series mostly up to 28.7 µM
Method in brief: (§1)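 Readout was DNA-dye fluorescence from lysed cultures, ex 485/em 535 nm. Parasitized red cells had grown 72 h with compound; data scaled between 0.29 uM artemisinin and DMSO wells and corrected using vehicle-only plates.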

CP192 = assay: as above; conditions: P. falciparum in erythrocytes, SYBR Green DNA, 72 h; activity, negative = inhibition: at 28.7 µM (top of the series)
Method in brief: as §1

CP194 = assay: as above; conditions: P. falciparum in erythrocytes, SYBR Green DNA, 72 h; series mostly up to 28.7 µM
Method in brief: as §1

CP201 = assay: as above; conditions: P. falciparum in erythrocytes, SYBR Green DNA, 72 h; series mostly up to 28.7 µM
Method in brief: as §1

CP203 = assay: as above; conditions: P. falciparum in erythrocytes, SYBR Green DNA, 72 h; series mostly up to 28.7 µM
Method in brief: as §1

CP211 = assay: as above; conditions: P. falciparum in erythrocytes, SYBR Green DNA, 72 h; series mostly up to 28.7 µM
Method in brief: as §1

CP215 = assay: as above; conditions: P. falciparum in erythrocytes, SYBR Green DNA, 72 h; series mostly up to 28.7 µM
Method in brief: as §1

CP252 = assay: as above; conditions: P. falciparum in erythrocytes, SYBR Green DNA, 72 h; series mostly up to 28.7 µM
Method in brief: as §1

CP265 = assay: as above; conditions: P. falciparum in erythrocytes, SYBR Green DNA, 72 h; series mostly up to 28.7 µM
Method in brief: as §1

CP266 = assay: as above; conditions: P. falciparum in erythrocytes, SYBR Green DNA, 72 h; activity, negative = inhibition: at 28.7 µM (top of the series)
Method in brief: as §1

CP268 = assay: as above; conditions: P. falciparum in erythrocytes, SYBR Green DNA, 72 h; series mostly up to 28.7 µM
Method in brief: as §1

CP269 = assay: as above; conditions: P. falciparum in erythrocytes, SYBR Green DNA, 72 h; series mostly up to 12.8 µM
Method in brief: as §1

CP291 = assay: as above; conditions: P. falciparum in erythrocytes, SYBR Green DNA, 72 h; series mostly up to 28.7 µM
Method in brief: as §1

CP297 = assay: as above; conditions: P. falciparum in erythrocytes, SYBR Green DNA, 72 h; activity, negative = inhibition: at 12.8 µM (top of the series) unless noted
Method in brief: as §1

CP305 = assay: as above; conditions: P. falciparum in erythrocytes, SYBR Green DNA, 72 h; series mostly up to 28.7 µM
Method in brief: as §1

CP315 = assay: as above; conditions: P. falciparum in erythrocytes, SYBR Green DNA, 72 h; series mostly up to 28.7 µM
Method in brief: as §1

CP325 = assay: as above; conditions: P. falciparum in erythrocytes, SYBR Green DNA, 72 h; series mostly up to 28.7 µM
Method in brief: as §1

CP329 = assay: as above; conditions: P. falciparum in erythrocytes, SYBR Green DNA, 72 h; series mostly up to 28.7 µM
Method in brief: as §1

DIV14 = assay: as above; conditions: P. falciparum in erythrocytes, SYBR Green DNA, 72 h; series mostly up to 28.7 µM
Method in brief: as §1

DIV17 = assay: as above; conditions: P. falciparum in erythrocytes, SYBR Green DNA, 72 h; activity, negative = inhibition: at 28.7 µM (top of the series) unless noted
Method in brief: as §1

DIV30 = assay: as above; conditions: P. falciparum in erythrocytes, SYBR Green DNA, 72 h; series mostly up to 28.7 µM
Method in brief: as §1

GB4 = assay: as above; conditions: P. falciparum in erythrocytes, SYBR Green DNA, 72 h; series mostly up to 28.7 µM
Method in brief: as §1

PC26 = assay: as above; conditions: P. falciparum in erythrocytes, SYBR Green DNA, 72 h; activity, negative = inhibition: at 28.7 µM (top of the series)
Method in brief: as §1

W2 = assay: as above; conditions: P. falciparum in erythrocytes, SYBR Green DNA, 72 h; series mostly up to 28.7 µM
Method in brief: as §1

S=C1NC=NC2N=CNC12 (centres undefined)
active: Potency [1] 23.7 µM | Potency [3] 42.2 µM | Potency (CP266) 10.7 µM
inactive: Potency (CP252) | Potency (CP265) | Potency (W2)
inconclusive: activation (TNF-alpha secretion) [2] -0.224% | Potency [4] 37.6 µM [cytotoxic, partial curve, poor fit] | Potency [5] 1.78 µM [cytotoxic, full curve] | Potency (7G8) 12.6 µM [inhibitor, single point] | Potency (CP192) 13.5 µM [inhibitor, single point] | Potency (CP194) 19 µM [inhibitor, single point] | Potency (CP201) 19 µM [inhibitor, single point] | Potency (CP203) 16.9 µM [inhibitor, single point] | Potency (CP211) 19 µM [inhibitor, single point] | Potency (CP215) 13.5 µM [inhibitor, single point] | Potency (CP268) 19 µM [inhibitor, single point] | Potency (CP269) 16.9 µM [inhibitor, single point] | Potency (CP291) 15.1 µM [inhibitor, single point] | Potency (CP297) 12 µM [inhibitor, partial curve, poor fit] | Potency (CP305) 15.1 µM [inhibitor, single point] | Potency (CP315) 19 µM [inhibitor, single point] | Potency (CP325) 19 µM [inhibitor, single point] | Potency (CP329) 16.9 µM [inhibitor, single point] | Potency (DIV14) 19 µM [inhibitor, single point] | Potency (DIV17) 19 µM [inhibitor, single point] | Potency (DIV30) 19 µM [inhibitor, single point] | Potency (GB4) 13.5 µM [inhibitor, single point] | Potency (PC26) 19 µM [inhibitor, single point]

Reference: PubChem BioAssay (NCATS)
